This is an account of results in article PMC12382147.

By UniProt entry, the sequences of proteins in these tests, tags left out.
UniProt Q9UNE7: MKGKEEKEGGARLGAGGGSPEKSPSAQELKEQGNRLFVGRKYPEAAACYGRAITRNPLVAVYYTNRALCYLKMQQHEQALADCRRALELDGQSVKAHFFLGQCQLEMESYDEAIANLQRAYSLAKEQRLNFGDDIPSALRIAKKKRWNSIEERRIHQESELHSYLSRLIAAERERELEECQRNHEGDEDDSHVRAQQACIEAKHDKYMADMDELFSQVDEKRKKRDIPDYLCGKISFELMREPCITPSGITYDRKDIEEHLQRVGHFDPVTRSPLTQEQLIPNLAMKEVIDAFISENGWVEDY
UniProt Q13263: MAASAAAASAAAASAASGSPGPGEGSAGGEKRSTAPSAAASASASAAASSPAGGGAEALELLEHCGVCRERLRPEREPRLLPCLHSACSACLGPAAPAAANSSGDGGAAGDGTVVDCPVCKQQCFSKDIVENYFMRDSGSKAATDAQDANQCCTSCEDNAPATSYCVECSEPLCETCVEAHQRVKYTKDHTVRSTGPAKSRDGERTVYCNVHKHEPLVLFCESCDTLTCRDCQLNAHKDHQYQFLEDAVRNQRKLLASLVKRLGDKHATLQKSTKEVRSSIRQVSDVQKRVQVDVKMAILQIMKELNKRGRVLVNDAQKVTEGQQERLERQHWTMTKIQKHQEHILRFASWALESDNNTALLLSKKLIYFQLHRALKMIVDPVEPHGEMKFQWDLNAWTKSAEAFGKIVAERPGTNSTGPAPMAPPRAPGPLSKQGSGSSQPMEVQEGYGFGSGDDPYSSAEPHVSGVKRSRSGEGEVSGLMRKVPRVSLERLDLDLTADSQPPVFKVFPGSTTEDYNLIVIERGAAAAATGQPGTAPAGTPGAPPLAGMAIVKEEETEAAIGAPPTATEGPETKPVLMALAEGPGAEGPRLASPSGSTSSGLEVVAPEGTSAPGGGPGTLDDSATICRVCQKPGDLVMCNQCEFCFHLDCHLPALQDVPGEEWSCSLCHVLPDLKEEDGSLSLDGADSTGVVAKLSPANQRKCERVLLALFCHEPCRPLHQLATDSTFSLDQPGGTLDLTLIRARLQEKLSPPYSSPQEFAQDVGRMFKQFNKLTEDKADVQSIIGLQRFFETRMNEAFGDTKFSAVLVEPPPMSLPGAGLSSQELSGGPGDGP

These are yes or no findings as the source states them, for the method shown. In cells and extracts the contact can be indirect. A yes stands for co-enrichment or nearness to the bait. Other partners may have been found. Where a sequence is shown, tags or fusion partners need not be part of it.

To fix the notation:
T1: Flag-TPIT (UniProt O60806)
T1 sequence: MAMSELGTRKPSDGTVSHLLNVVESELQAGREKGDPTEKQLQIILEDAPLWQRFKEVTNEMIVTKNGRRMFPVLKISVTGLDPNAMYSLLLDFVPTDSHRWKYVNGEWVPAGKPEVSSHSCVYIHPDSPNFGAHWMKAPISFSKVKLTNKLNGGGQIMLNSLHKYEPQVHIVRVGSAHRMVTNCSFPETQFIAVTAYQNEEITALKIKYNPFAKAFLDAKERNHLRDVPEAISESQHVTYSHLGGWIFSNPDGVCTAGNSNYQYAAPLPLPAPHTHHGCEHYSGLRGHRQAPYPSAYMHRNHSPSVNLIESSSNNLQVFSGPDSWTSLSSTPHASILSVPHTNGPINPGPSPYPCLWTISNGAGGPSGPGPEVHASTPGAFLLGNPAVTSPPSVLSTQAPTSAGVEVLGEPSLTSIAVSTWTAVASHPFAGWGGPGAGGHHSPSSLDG

B1: PLRG1, endogenous (protein, UniProt O43660 1-514)
chain: MVEEVQKHSVHTLVFRSLKRTHDMFVADNGKPVPLDEESHKRKMAIKLRNEYGPVLHMPTSKENLKEKGPQNATDSYVHKQYPANQGQEVEYFVAGTHPYPPGPGVALTADTKIQRMPSESAAQSLAVALPLQTKADANRTAPSGSEYRHPGASDRPQPTAMNSIVMETGNTKNSALMAKKAPTMPKPQWHPPWKLYRVISGHLGWVRCIAVEPGNQWFVTGSADRTIKIWDLASGKLKLSLTGHISTVRGVIVSTRSPYLFSCGEDKQVKCWDLEYNKVIRHYHGHLSAVYGLDLHPTIDVLVTCSRDSTARIWDVRTKASVHTLSGHTNAVATVRCQAAEPQIITGSHDTTIRLWDLVAGKTRVTLTNHKKSVRAVVLHPRHYTFASGSPDNIKQWKFPDGSFIQNLSGHNAIINTLTVNSDGVLVSGADNGTMHLWDWRTGYNFQRVHAAVQPGSLDSESGIFACAFDQSESRLLTAEADKTIKVYREDDTATEETHPVSWKPEIIKRKRF

This test addresses T1, Flag-TPIT. Kind of test: affinity purification with mass spectrometry; Flag-TPIT immunoprecipitated on anti-DYKDDDDK affinity beads from transfected HEK-293T cells and from adenovirus-infected primary corticotroph tumor cells; Triton X-100 lysis buffer (150 mM NaCl, 50 mM Tris, 1% Triton X-100, pH 7.5).
For the molecule “STIP1 Homology and U-Box Containing Protein 1 (STUB1), endogenous, human cells (from UniProt Q9UNE7 1-303) (enzyme)”, the binding entry is reported as “binds”.

For “Tripartite motif-containing protein 28 (TRIM28), endogenous (from UniProt Q13263 1-835) (enzyme)”, the binding result is listed as “binds”.

For the molecule B1, the binding entry is on record as “binds”.
